Test results as given in USRE49918E1, “Cytotoxic benzodiazepine derivatives” (priority 2011, dated 2024).

System: HL60/QC tumors
Assay: In vivo efficacy in HL60/QC tumor bearing nude mice
Conditions: HL60/QC model
Description: In this study, the anti-tumor activity of huMY9-6-SPDB-1f was investigated in female nude mice bearing HL60/QC tumors, a human acute myeloid leukemia model. HL60/QC tumor cells, 2×10^6 cells/mouse were subcutaneously inoculated at a volume of 0.1 mL/mouse in the area over the right shoulder of female athymic nude mice, 5 weeks of age. Eight days after tumor cell inoculation mice were randomized into groups (n=6 per group) by tumor volume. Treatment was initiated the day of randomization, and groups included a control group dosed with PBS (200 μL/injection), or a single treatment at various doses (5 to 100 μg/kg) of huMY9-6-SPDB-1f (50 μg/kg 1f dose corresponded to 2.5 mg/kg antibody dose). […] The minimum effective dose was estimated to be 20 μg/kg, which is about 35-fold lower that the maximum tolerated dose.
To compare in vivo efficacy of the subject conjugates prepared with or without an imine reactive group, huMy9-6-Drug 2 were formulated with or without 50 μM sodium bisulfite, and the conjugates were used to treat mice bearing HL60-QC tumor xenografts.

**Q.** For `CNC(=O)CCCSSC(C)(C)CN(CCOCCOCCOC)c1cc(COc2cc3c(cc2OC)C(=O)N2c4ccccc4C[C@H]2C=N3)cc(COc2cc3c(cc2OC)C(=O)N2c4ccccc4C[C@H]2CN3)c1` [huMy9-6-SPDB-1f], which “minimum effective dose fold lower than the maximum tolerated dose” value is on record?
**A.** The value was “at least 35 fold”.

**Q.** And the “minimum effective dose fold lower than the maximum tolerated dose” value (listed as huMY9-6-SPDB-1f)?
**A.** The value was “about 35 fold”.
